Source: PubChem BioAssay AID328 (DTP/NCI, 2004)
The list is a part of this screen's results and no random one: it is rich in T/C values a quarter to a half above the control, in often repeated tests (any T/C) and in doses without a T/C. Other doses and runs of a compound stand elsewhere. T/C gives the treated animals as a percentage of the vehicle group. Some doses have a count of surviving animals in place of a T/C: the source files T/C as zero there, which appears to mark a toxic dose or a test without result, not a measured value. Some survivor counts are full or nearly so, which does not show that the dose was tolerated: the source hardly ever lists a survival T/C far under the control, and the zero likely stands for such cases as well. Counts of survivors are from the toxicity check (mostly the fifth day) where no day follows; animals may have died later. Schedules are NCI's codes, taken here to give the interval after Q, in days (D) or hours (H), and the number of doses after X. Some molecules as drawn cover several salts, stereoisomers or complexes of the source; a dose is that of the sample tested. Some entries hold several experiments; the values are given in rising order. For survival time, this PubChem deposit counts one and a half times the control or more as active, and values a quarter to a half above the control carry no call in these data; other NCI protocols may use other cut-offs. Signs of the kind (2×) count equal records among those shown.

Test system: BDF1 mice, P388 leukemia ip, median survival T/C
Assay: NCI In Vivo Anticancer Drug Screen. Data for tumor model P388 Leukemia (intraperitoneal) in B6D2F1 (BDF1) mice
Conditions: T/C endpoint: median survival time, higher T/C = longer survival
In short: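 Reported as T/C, where T is the survival measurement in dosed animals and C the same measurement in vehicle controls.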

[1] = dose: 200.0 mg/kg/injection, schedule: Q04DX003 (ip), vehicle: Klucel (hydroxypropylcellulose) (HPC)
[2] = dose: 200.0 mg/kg/injection, schedule: Q01DX009 (ip), vehicle: Klucel (hydroxypropylcellulose) (HPC)
[3] = dose: 100.0 mg/kg/injection, schedule: Q01DX009 (ip), vehicle: saline
[4] = dose: 50.0 mg/kg/injection, schedule: Q01DX009 (ip), vehicle: saline with Tween-80
[5] = dose: 400.0 mg/kg/injection, schedule: Q01DX009 (ip), vehicle: saline with Tween-80
[6] = dose: 400.0 mg/kg/injection, schedule: Q01DX009 (ip), vehicle: Klucel (hydroxypropylcellulose) (HPC)
[7] = dose: 100.0 mg/kg/injection, schedule: Q01DX009 (ip), vehicle: saline with Tween-80
[8] = dose: 25.0 mg/kg/injection, schedule: Q01DX009 (ip), vehicle: saline with Tween-80
[9] = dose: 200.0 mg/kg/injection, schedule: Q01DX009 (ip), vehicle: saline
[10] = dose: 200.0 mg/kg/injection, schedule: Q01DX009 (ip), vehicle: saline with Tween-80

## Cc1ccc([I+]c2ccc(C)cc2C)c(C)c1
dose: 3.12 mg/kg/injection, schedule: Q01DX009 (ip), vehicle: Klucel (hydroxypropylcellulose) (HPC)
  survivor count: 6 of 6
dose: 6.0 mg/kg/injection, schedule: Q01DX009 (ip), vehicle: Klucel (hydroxypropylcellulose) (HPC)
  survivor count: 2 of 6
dose: 6.25 mg/kg/injection, schedule: Q01DX009 (ip), vehicle: Klucel (hydroxypropylcellulose) (HPC)
  survivor count: 6 of 6
dose: 12.0 mg/kg/injection, schedule: Q01DX009 (ip), vehicle: Klucel (hydroxypropylcellulose) (HPC)
  survivor count: 0 of 6 and 6 of 6
dose: 15.0 mg/kg/injection, schedule: Q04DX003 (ip), vehicle: Klucel (hydroxypropylcellulose) (HPC)
  survivor count: 3 of 5
dose: 25.0 mg/kg/injection, schedule: Q01DX009 (ip), vehicle: Klucel (hydroxypropylcellulose) (HPC)
  survivor count: 1 of 6
dose: 25.0 mg/kg/injection, schedule: Q04DX003 (ip), vehicle: Klucel (hydroxypropylcellulose) (HPC)
  survivor count: 2 of 6
dose: 50.0 mg/kg/injection, schedule: Q01DX009 (ip), vehicle: Klucel (hydroxypropylcellulose) (HPC)
  survivor count: 0 of 6
dose: 50.0 mg/kg/injection, schedule: Q04DX003 (ip), vehicle: Klucel (hydroxypropylcellulose) (HPC)
  survivor count: 0 of 6
dose: 75.0 mg/kg/injection, schedule: Q01DX009 (ip), vehicle: Klucel (hydroxypropylcellulose) (HPC)
  survivor count: 0 of 6
dose: 100.0 mg/kg/injection, schedule: Q04DX003 (ip), vehicle: Klucel (hydroxypropylcellulose) (HPC)
  survivor count: 0 of 6
[1]
  survivor count: 0 of 6
dose: 400.0 mg/kg/injection, schedule: Q04DX003 (ip), vehicle: Klucel (hydroxypropylcellulose) (HPC)
  survivor count: 0 of 6

## O=Cc1ccccc1B(O)O
[2]
  T/C: 136 % of control
  survivor count: 0 of 6

## COc1ccc2nc3cc(Cl)ccc3c(NCCO)c2c1
dose: 300.0 mg/kg/injection, schedule: Q01DX010 (ip), vehicle: saline
  survivor count: 2 of 7

## CC(C)(C)N1CCOCC1
[3]
  survivor count: 0 of 6
dose: 170.0 mg/kg/injection, schedule: Q04DX003 (ip), vehicle: saline
  survivor count: 1 of 6

## S=c1nc[nH]c2nc[nH]c12
dose: 15.0 mg/kg/injection, schedule: Q01DX010 (ip), vehicle: saline
  survivor count: 6 of 6
dose: 40.0 mg/kg/injection, schedule: Q01DX009 (ip), vehicle: alkali diluted with saline
  T/C: 97, 104, 112, 113, 117 % of control
dose: 43.2 mg/kg/injection, schedule: Q01DX009 (ip), vehicle: alkali diluted with saline
  T/C: 125 % of control
[4]
  T/C: 127 % of control
dose: 60.0 mg/kg/injection, schedule: Q01DX009 (ip), vehicle: alkali diluted with saline
  T/C: 108, 110, 113, 114, 126 % of control
dose: 60.0 mg/kg/injection, schedule: Q01DX010 (ip), vehicle: saline
  T/C: 133 and 136 % of control
dose: 120.0 mg/kg/injection, schedule: Q01DX010 (ip), vehicle: saline
  survivor count: 6 of 6
dose: 200.0 mg/kg/injection, schedule: Q01DX009 (ip), vehicle: alkali diluted with saline
  survivor count: 2 of 8

## CC(=O)OCC1OC(n2ccc(N)nc2=O)C(OC(C)=O)C1OC(C)=O (stereo not drawn)
dose: 100.0 mg/kg/injection, schedule: Q04DX003 (ip), vehicle: saline
  T/C: 129 % of control
dose: 200.0 mg/kg/injection, schedule: Q04DX003 (ip), vehicle: saline
  T/C: 133 % of control
[5]
  survivor count: 5 of 6
dose: 400.0 mg/kg/injection, schedule: Q04DX003 (ip), vehicle: saline
  T/C: 141 % of control

## COC(=O)C(c1ccccc1)C(Br)C(=O)c1ccccc1 (stereo not drawn)
dose: 100.0 mg/kg/injection, schedule: Q01DX009 (ip), vehicle: Klucel (hydroxypropylcellulose) (HPC)
  survivor count: 6 of 6
[6]
  survivor count: 6 of 6

## O=C1CN(c2ccccc2)CC(=O)N2CCCN12
dose: 100.0 mg/kg/injection, schedule: Q01DX005 (ip), vehicle: saline with Tween-80
  survivor count: 5 of 5

## BrCCC1(CCBr)CCCCC1
dose: 400.0 mg/kg/injection, schedule: Q04DX003 (ip), vehicle: water
  T/C: 136 % of control

## CCOC(=O)Oc1c(OC)cc(C(=O)O[C@@H]2C[C@@H]3CN4CCc5c([nH]c6cc(OC)ccc56)[C@H]4C[C@@H]3[C@H](C(=O)OC)[C@H]2OC)cc1OC
[4]
  survivor count: 5 of 6
[7]
  survivor count: 6 of 6

## COC(=O)C1(C(=O)OC)N=C(C)OO1
[8]
  T/C: 149 % of control

## CC(=O)Nc1ccc(S(=O)(=O)Oc2ccc([N+](=O)[O-])cc2)cc1
dose: 50.0 mg/kg/injection, schedule: Q01DX009 (ip), vehicle: saline
  survivor count: 6 of 6
[3]
  survivor count: 6 of 6
[9]
  survivor count: 6 of 6
dose: 400.0 mg/kg/injection, schedule: Q01DX009 (ip), vehicle: saline
  survivor count: 6 of 6

## Cc1c[nH]c2nccnc12
dose: 12.5 mg/kg/injection, schedule: Q01DX009 (ip), vehicle: water
  T/C: 127 % of control
dose: 25.0 mg/kg/injection, schedule: Q01DX009 (ip), vehicle: water, evaluated on day 20
  T/C: 102 (2×) and 105 % of control
dose: 25.0 mg/kg/injection, schedule: Q01DX009 (ip), vehicle: water, evaluated on day 22
  T/C: 117 % of control

## CC1(c2cccs2)NC(=O)N(Cl)C1=O (stereo not drawn)
[7]
  survivor count: 5 of 6
[10]
  survivor count: 3 of 6
dose: 200.0 mg/kg/injection, schedule: Q04DX003 (ip), vehicle: saline with Tween-80
  survivor count: 4 of 6
[5]
  survivor count: 0 of 6

## CC(=O)N/N=C\C1=CCC=C(Br)S1
[10]
  survivor count: 5 of 6

## C=C(C)C(=O)/C(=C/C(=O)O)OC
dose: 100.0 mg/kg/injection, schedule: Q01DX010 (ip), vehicle: saline
  survivor count: 0 of 6

## CCOC(=O)C1=C(Nc2ccc([N+](=O)[O-])cc2)CCCC1
dose: 12.5 mg/kg/injection, schedule: Q01DX009 (ip), vehicle: saline with Tween-80
  survivor count: 6 of 6
[8]
  survivor count: 6 of 6
[4]
  survivor count: 5 of 6
[3]
  survivor count: 2 of 6
[9]
  survivor count: 0 of 6

## NC(=O)Oc1cc(OC(N)=O)cc(N(CCCl)CCCl)c1
[7]
  T/C: 126 % of control
dose: 200.0 mg/kg/injection, schedule: Q04DX003 (ip), vehicle: other
  survivor count: 6 of 6
dose: 400.0 mg/kg/injection, schedule: Q04DX003 (ip), vehicle: other
  survivor count: 6 of 6

## C=CCO
dose: 100.0 mg/kg/injection, schedule: Q01DX001 (ip), vehicle: saline with Tween-80
  survivor count: 2 of 6
dose: 200.0 mg/kg/injection, schedule: Q01DX001 (ip), vehicle: saline with Tween-80
  survivor count: 0 of 6
dose: 400.0 mg/kg/injection, schedule: Q01DX001 (ip), vehicle: saline with Tween-80
  survivor count: 0 of 6

## COn1nnc2c([N+](=O)[O-])cccc21
[7]
  survivor count: 1 of 6
[10]
  survivor count: 0 of 6

## CCC1CN1CC1CO1 (stereo not drawn)
dose: 19.0 mg/kg/injection, schedule: Q04DX003 (ip), vehicle: Klucel (hydroxypropylcellulose) (HPC)
  T/C: 133 % of control
dose: 45.0 mg/kg/injection, schedule: Q04DX003 (ip), vehicle: Klucel (hydroxypropylcellulose) (HPC)
  T/C: 141 % of control
dose: 65.0 mg/kg/injection, schedule: Q04DX003 (ip), vehicle: Klucel (hydroxypropylcellulose) (HPC)
  T/C: 125 % of control
[1]
  T/C: 131 % of control
dose: 265.0 mg/kg/injection, schedule: Q01DX009 (ip), vehicle: Klucel (hydroxypropylcellulose) (HPC)
  T/C: 145 % of control
[6]
  T/C: 145 % of control

## CCCCCCCC/C=C\CCCCCCCC(=O)OC
[7]
  T/C: 125 % of control
[5]
  T/C: 125 % of control

## NC(CSCc1ccccc1)(CSCc1ccccc1)C(=O)O
dose: 25.0 mg/kg/injection, schedule: Q01DX009 (ip), vehicle: other
  survivor count: 6 of 6
dose: 100.0 mg/kg/injection, schedule: Q01DX009 (ip), vehicle: other
  survivor count: 6 of 6
